Test results as given in patent US20150132254A1 (MIT, published 2015).
Results are given in words; binding and its absence hold for the method and conditions named. Some results given as binding are weak or reduced against the parent protein; the word gives no strength. Sequences can lack the tags named with a protein.

T1: soluble murine CD25 (His-tagged recombinant mouse IL-2Rα/CD25, R&D Systems) (mouse) (UniProt P01590)
T1 sequence (looked up): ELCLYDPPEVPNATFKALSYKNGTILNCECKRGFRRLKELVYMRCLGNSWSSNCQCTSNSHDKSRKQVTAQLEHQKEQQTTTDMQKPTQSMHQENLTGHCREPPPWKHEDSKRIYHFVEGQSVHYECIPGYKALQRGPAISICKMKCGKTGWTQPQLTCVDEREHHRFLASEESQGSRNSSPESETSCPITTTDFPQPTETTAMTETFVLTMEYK


Columns and labels:
[1] = target: T1, soluble murine CD25 (His-tagged recombinant mouse IL-2Rα/CD25, R&D Systems) (mouse); test: yeast surface display, 5 or 50 nM soluble CD25
[2] = target: T1, soluble murine CD25 (His-tagged recombinant mouse IL-2Rα/CD25, R&D Systems) (mouse); test: yeast surface display, soluble CD25

Row | Binder | binding [1] | binding [2]
1 | mouse IL-2 H82E (yeast-displayed) (ligand) APTSSSTSSSTAEAQQQQQQQQQQQQHLEQLLMDLQELLSRMENYRNLKLPRMLTFKFYLPKQATELKDLQCLEDELGPLREVLDLTQSKSFQLEDAENFISNIRVTVVKLKGSDNTFECQFDDESATVVDFLRRWIAFCQSIISTSPQ | binds | 
2 | mouse IL-2 Q121A (yeast-displayed) (ligand) APTSSSTSSSTAEAQQQQQQQQQQQQHLEQLLMDLQELLSRMENYRNLKLPRMLTFKFYLPKQATELKDLQCLEDELGPLRHVLDLTQSKSFQLEDAENFISNIRVTVVKLKGSDNTFECAFDDESATVVDFLRRWIAFCQSIISTSPQ | binds | 
3 | mouse IL-2 H82A (yeast-displayed) (ligand) APTSSSTSSSTAEAQQQQQQQQQQQQHLEQLLMDLQELLSRMENYRNLKLPRMLTFKFYLPKQATELKDLQCLEDELGPLRAVLDLTQSKSFQLEDAENFISNIRVTVVKLKGSDNTFECQFDDESATVVDFLRRWIAFCQSIISTSPQ | binds | 
4 | S126P IL-2 (mouse, yeast-displayed) (ligand) APTSSSTSSSTAEAQQQQQQQQQQQQHLEQLLMDLQELLSRMENYRNLKLPRMLTFKFYLPKQATELKDLQCLEDELGPLRHVLDLTQSKSFQLEDAENFISNIRVTVVKLKGSDNTFECQFDDEPATVVDFLRRWIAFCQSIISTSPQ |  | binds
5 | mouse IL-2 H82G (yeast-displayed) (ligand) APTSSSTSSSTAEAQQQQQQQQQQQQHLEQLLMDLQELLSRMENYRNLKLPRMLTFKFYLPKQATELKDLQCLEDELGPLRGVLDLTQSKSFQLEDAENFISNIRVTVVKLKGSDNTFECQFDDESATVVDFLRRWIAFCQSIISTSPQ | binds | 
6 | mouse IL-2 Q121S (yeast-displayed) (ligand) APTSSSTSSSTAEAQQQQQQQQQQQQHLEQLLMDLQELLSRMENYRNLKLPRMLTFKFYLPKQATELKDLQCLEDELGPLRHVLDLTQSKSFQLEDAENFISNIRVTVVKLKGSDNTFECSFDDESATVVDFLRRWIAFCQSIISTSPQ | binds | 

Further lines, results first:

Row | binding [1] | binding [2] | Binder
7 | binds |  | mouse IL-2 Q121G (yeast-displayed) (ligand) APTSSSTSSSTAEAQQQQQQQQQQQQHLEQLLMDLQELLSRMENYRNLKLPRMLTFKFYLPKQATELKDLQCLEDELGPLRHVLDLTQSKSFQLEDAENFISNIRVTVVKLKGSDNTFECGFDDESATVVDFLRRWIAFCQSIISTSPQ
8 |  | binds | S126T IL-2 (mouse, yeast-displayed) (ligand) APTSSSTSSSTAEAQQQQQQQQQQQQHLEQLLMDLQELLSRMENYRNLKLPRMLTFKFYLPKQATELKDLQCLEDELGPLRHVLDLTQSKSFQLEDAENFISNIRVTVVKLKGSDNTFECQFDDETATVVDFLRRWIAFCQSIISTSPQ
9 | binds |  | mouse IL-2 Q121R (yeast-displayed) (ligand) APTSSSTSSSTAEAQQQQQQQQQQQQHLEQLLMDLQELLSRMENYRNLKLPRMLTFKFYLPKQATELKDLQCLEDELGPLRHVLDLTQSKSFQLEDAENFISNIRVTVVKLKGSDNTFECRFDDESATVVDFLRRWIAFCQSIISTSPQ
10 | binds |  | mouse IL-2 H82S (yeast-displayed) (ligand) APTSSSTSSSTAEAQQQQQQQQQQQQHLEQLLMDLQELLSRMENYRNLKLPRMLTFKFYLPKQATELKDLQCLEDELGPLRSVLDLTQSKSFQLEDAENFISNIRVTVVKLKGSDNTFECQFDDESATVVDFLRRWIAFCQSIISTSPQ
